Test results as given in PubChem BioAssay AID504648 (National Center for Advancing Translational Sciences (NCATS), 2011).
Screen size: about 390,000 compounds; about 610 (0.16%) were called active. Inconclusive results, whose numbers are uncertain, are shown with a selection of clear calls. Calls come from the whole dose curve; as a rule, active = well fitted inhibition curve with a large enough effect; inconclusive = small, poorly fitted or top-dose-only effect, or effect the other way, or another doubt; inactive = no such curve, though single readings can be large or run the other way. Potencies beside an inconclusive call are fits to weak or partial responses and may not hold up.
% is set by controls: 0 for no effect and ±100 for the full control effect; potency is the fitted concentration of half-maximal effect.

Assay: Nrf2 qHTS screen for inhibitors: counterscreen for cytotoxicity
Conditions: A549 ARE-Fluc cells, CellTiter-Fluor viability, 18-24 h; activity change, negative = cytotoxicity: at 46 µM (top of the series)
Method in brief: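 A549 ARE_Fluc cells in 5% FBS OPTI-MEM were exposed to compounds in concentration-response for 18-24 h at 37 deg C. Viability was read by CellTiter-Fluor fluorescence (Ex 405/Em 525) after 30 min, before the luciferase read.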
For `CCCCn1nc2cc(C(=O)N[C@H](C)C3CCCCC3)ccc2c1OCC`, the Potency was inconclusive: 29.1 µM [falling, single point].
For `COc1ccc2cc(-c3[nH]ncc3CN3C[C@@H]4CCC[C@H]3C4)ccc2c1`, the Potency was inconclusive: 20.6 µM [activator, partial curve, poor fit].
For `CCOC(=O)c1c2c3c(c(Cl)ccc3[nH]c1=O)C(=O)c1ccccc1-2`, the Potency was inconclusive: 29.1 µM [falling, single point].
With `Cc1ccc(Cn2c(CNS(=O)(=O)c3ccc(Cl)s3)nc3cccnc32)cc1` the Potency was “inactive”.
For `O=C(CSc1n[nH]c(=O)n1Cc1ccco1)c1ccc2c(c1)OCCO2`, the Potency was “inactive”.
With `O=C(c1c(O)c2ccccc2oc1=O)C1CCCCC1` the Potency was inconclusive: 9.2 µM [falling, partial curve].
For `Cc1nn(-c2ccccc2)c(N2CCCC2)c1/C=N/NC(=O)c1cccc(S(=O)(=O)Nc2ccc(Cl)cc2)c1`, the Potency was inconclusive: 29.1 µM [falling, partial curve, poor fit].
In the case of `COC(=O)CCSc1cc([N+](=O)[O-])cc2c1c(C1OCCS1)nn2-c1ccccc1` (centres undefined), the Potency is reported as inconclusive: 23.1 µM [falling, partial curve, poor fit].
In the case of `O=C(/C=C/c1ccc(O)c(O)c1)c1ccccc1O`, the Potency is reported as inconclusive: 10.3 µM [falling, partial curve, poor fit].
In the case of `C=CC[C@H](CC(=O)N(CCO)Cc1ccccc1)C(=O)N[C@H](COC(=O)[C@H](CC=C)CC(=O)OC(C)(C)C)Cc1ccccc1`, the Potency is reported as inconclusive: 18.4 µM [falling, single point].
With `CCOC(=O)c1c(Nc2ccc(Cl)cc2)sc(/C=C2\C=Nc3ccccc32)c1O` the activity change, negative = cytotoxicity was inactive: -7.36% [at 1.84 µM].
With `CCOc1ccc(CN(C)c2nc(-c3cccnc3)nc3ccccc23)cc1OC` the Potency was inconclusive: 29.1 µM [falling, single point].
In the case of `O=C(Nc1cc(Cl)cc(Cl)c1)c1cc(S(=O)(=O)N2CCc3ccccc3C2)ccc1F`, the Potency is reported as “inactive”.
With `Cc1ccc(Oc2ccc(NC(=O)Cn3ccsc3=N)cc2)cc1` the Potency was inconclusive: 23.1 µM [falling, partial curve, poor fit].
For `Cc1cc(NC(=O)CSc2nc(C(C)C)nc3sc(C)c(C)c23)no1`, the Potency was inconclusive: 23.1 µM [falling, partial curve].
With `O=C(Nc1c(C(=O)Nc2cccc(F)c2)oc2ccccc12)c1cc2ccccc2o1` the Potency was inconclusive: 29.1 µM [falling, single point].
For `COc1ccc(-n2c(=O)[nH]cc(C(=O)Nc3ccc(NC(C)=O)cc3)c2=O)cc1`, the Potency was inconclusive: 20.6 µM [falling, single point].
For `CCOC(=O)C(NS(=O)(=O)c1ccccc1)(C(F)(F)F)P(=O)(OCC(C)C)OCC(C)C` (centres undefined), the Potency was inconclusive: 32.6 µM [falling, single point].
In the case of `CCn1cc(C(=O)NCCN(C)CCc2ccccc2)c(=O)c2cc(S(=O)(=O)N(C)C)ccc21`, the Potency is reported as inconclusive: 0.731 µM [activator, full curve, poor fit].
With `CCN(CC)CCOC(=O)c1ccc(N/C=C(/C#N)c2nc(-c3ccc4c(c3)OCO4)cs2)cc1` the Potency was “inactive”.
In the case of `CCOC(=O)c1c(NC(=O)COc2cccc(C(F)(F)F)c2)sc2c1CCCCC2`, the Potency is reported as “inactive”.
With `COc1ccc(CCNC(=O)CCc2c(C)c3cc4c(C)c(C)oc4cc3oc2=O)cc1` the Potency was “inactive”.
In the case of `C[C@H](CO)N1C[C@H](C)[C@@H](CN(C)Cc2ccc(Cl)c(Cl)c2)Oc2c(NC(=O)C3CC3)cccc2C1=O`, the Potency is reported as inconclusive: 29.1 µM [falling, partial curve, poor fit].
With `COc1ccc(CNC(=O)CN2C(=O)CCCc3ccccc32)cc1` the Potency was “inactive”.
For `CN(C)c1ccc(C2Nc3ccccc3C(=O)N2NS(C)(=O)=O)cc1` (centres undefined), the Potency was “inactive”.
In the case of `CCC(=O)Nc1ccc(-c2csc(NNC(C)=O)n2)cc1`, the Potency is reported as inconclusive: 2.59 µM [activator, partial curve, poor fit].
With `COC(=O)N[C@@H]1C[C@H]2[C@@H]3CC[C@H]4C[C@@H](OC)CC[C@]4(C)[C@H]3CC[C@@]12C` the Potency was “inactive”.
In the case of `O=C(OC1CCCCC1)c1cc2ccccc2oc1=O`, the Potency is reported as “inactive”.
With `CCOC(=O)C(C(C)=O)c1c(Br)c(O)c(O)c2c(C(=O)c3ccc(C)cc3)coc12` (centres undefined) the Potency was active: 8.2 µM.
For `CCOC(=O)c1cc(-c2ccccc2)n(-c2cccc(C(=O)N(CC)c3ccccc3)c2)c1C`, the Potency was inconclusive: 16.4 µM [falling, single point].
In the case of `Cc1c(Nc2cc(Cl)c3nonc3c2[N+](=O)[O-])c(=O)n(-c2ccccc2)n1C`, the Potency is reported as inconclusive: 23.1 µM [falling, single point].
With `COC(=O)C1=C(C)NC(=O)CC1c1cccc(Cl)c1Cl` (centres undefined) the Potency was “inactive”.
With `N#C/C(=C\c1ccc(-c2ccc([N+](=O)[O-])cc2)o1)C(=O)Nc1nc(-c2cccs2)cs1` the Potency was inconclusive: 20.6 µM [falling, partial curve, poor fit].
For `CCOC(=O)N1CCN(C(=O)c2cccn3c(=O)c4cc(Cl)ccc4nc23)CC1`, the Potency was “inactive”.
With `CCOc1ccc(Br)cc1CSC(=N)N` the Potency was active: 20.6 µM.
With `Cc1nc2ccc(NC(=O)c3cccs3)cc2c(=O)n1Cc1ccc(Cl)cc1` the Potency was inconclusive: 16.4 µM [falling, single point].
For `COc1ccc(C[C@@H]2CN3C(=NC[C@@H]3C)N2C[C@H](C)NC(=O)c2ccc(C)c(Br)c2)cc1`, the Potency was inconclusive: 13 µM [falling, partial curve, poor fit].
In the case of `COc1cccc(-c2csc(NC(=O)Nc3ccccc3)n2)c1`, the Potency is reported as inconclusive: 29.1 µM [falling, single point].
For `Cc1cc(=S)cc(C)n1CCCO`, the Potency was inconclusive: 29.1 µM [falling, single point].
In the case of `O=C(CC1(O)C(=O)Nc2ccc(Br)cc21)c1ccc2c(c1)OCO2` (centres undefined), the Potency is reported as inconclusive: 7.31 µM [activator, partial curve, poor fit].
In the case of `O=C(NCc1ccc(Cl)cc1)c1ccc(NC(=O)N2CC3CCCN3c3ccccc32)cc1` (centres undefined), the Potency is reported as “inactive”.
In the case of `CC1=C(C(=O)OC2CCCCCC2)C(c2ccc(C)o2)C2=C(CCCC2=O)N1` (centres undefined), the Potency is reported as inconclusive: 4.61 µM [falling, partial curve, poor fit].
For `Cc1ccc(CNC(=O)CCS(=O)(=O)c2cc3c(cc2Cl)NC(=O)CO3)cc1`, the Potency was “inactive”.
With `CN(C(=O)CSc1nc2ccc(NC(=O)c3ccccc3F)cc2s1)c1ccccc1` the Potency was inconclusive: 29.1 µM [falling, single point].
With `Fc1ccc(Nc2nc(N3CCOCC3)nc(N3CCOCC3)n2)cc1` the Potency was inconclusive: 4.61 µM [activator, full curve, poor fit].
In the case of `Cc1cc(C)cc(NC(=O)C(=O)NCC(c2ccc3c(c2)OCO3)N2CCOCC2)c1` (centres undefined), the Potency is reported as “inactive”.
For `COc1ccc(N2CCN(CCNC(=O)CCCn3c(=O)[nH]c4cc(Cl)ccc4c3=O)CC2)cc1`, the Potency was inconclusive: 29.1 µM [falling, partial curve, poor fit].
With `COc1ccccc1N1CCN(CCNC(=O)Nc2cccc(C)c2C)CC1` the Potency was inconclusive: 18.4 µM [falling, partial curve, poor fit].
With `CCc1c(C)c2cc(Cl)c(O)c(CN(C)C)c2oc1=O` the Potency was inconclusive: 11.6 µM [activator, partial curve, poor fit].
In the case of `O=C(NC1CCCC1)C(c1ccco1)N(C(=O)c1ccco1)c1ccccc1` (centres undefined), the Potency is reported as inconclusive: 29.1 µM [falling, single point].
For `O=C(CN1CC(=O)Oc2ccccc21)OCC(=O)c1ccc(F)cc1`, the Potency was inconclusive: 32.6 µM [falling, partial curve, poor fit].
For `CCOC(=O)N1CCN(S(=O)(=O)c2ccc(C(=O)N(CCN(C)C)c3nc4ccc(Cl)cc4s3)cc2)CC1`, the Potency was inconclusive: 9.2 µM [activator, partial curve, poor fit].
In the case of `O=C1CC(c2nc3ccccc3n2CCC2CCCCC2)CN1c1ccccc1Cl` (centres undefined), the Potency is reported as inconclusive: 20.6 µM [falling, single point].
In the case of `O=C(O)c1ccc(N/N=C/C=C/c2ccccc2[N+](=O)[O-])cc1`, the Potency is reported as inconclusive: 20.6 µM [falling, single point].
In the case of `OC(c1ccccn1)(c1ccccn1)c1ccccn1`, the Potency is reported as inconclusive: 0.92 µM [falling, partial curve].
With `COc1ccc(OC)c(CNC(=O)c2ccc(Sc3ccc(Cl)cc3)c(NC(C)=O)c2)c1` the Potency was “inactive”.
For `O=C(NC1CCCCC1)c1ccc(CSc2nc3ccncc3n2Cc2ccccc2)cc1`, the Potency was “inactive”.
In the case of `Cc1nc(NC2=NCN(CCCN3CCOCC3)CN2)nc2c(C)cccc12`, the Potency is reported as “inactive”.
For `CCc1cccc(CC)c1N(COC)C(=O)Cn1c(CC)nc2ccccc21`, the Potency was inconclusive: 18.4 µM [falling, single point].
For `C=CC[C@H](CC(=O)N(CCO)Cc1ccccc1)C(=O)N[C@@H](COC(=O)[C@@H](CC=C)Cc1ccc(F)cc1)Cc1c[nH]c2ccccc12`, the Potency was inconclusive: 23.1 µM [falling, single point].
For `Cn1c(CN2CCOCC2)nc2cc(NC(=O)c3ccc(Cl)cc3)ccc21`, the Potency was inconclusive: 16.4 µM [falling, partial curve, poor fit].
In the case of `O=c1c2ccccc2sc2c(CO)ccc(NCCN3CCCCC3)c12`, the Potency is reported as inconclusive: 18.4 µM [falling, single point].
For `COc1ccc(C2C(=O)N(C3CCC(C)CC3)CC(=O)N2C2CCCCC2)cc1OC` (centres undefined), the Potency was “inactive”.
In the case of `N=c1c2c(ncn1-c1ccccc1)Oc1ccc3ccccc3c1C2c1ccc2c(c1)OCCO2` (centres undefined), the Potency is reported as inconclusive: 29.1 µM [falling, single point].
